The text below walks through data of publication PMC11043401.

By UniProt entry, the sequences of proteins in these tests, tags left out. Where a name states a change or a piece, a line headed by the entry shows the natural chain unless it says otherwise.
UniProt Q9SIZ2: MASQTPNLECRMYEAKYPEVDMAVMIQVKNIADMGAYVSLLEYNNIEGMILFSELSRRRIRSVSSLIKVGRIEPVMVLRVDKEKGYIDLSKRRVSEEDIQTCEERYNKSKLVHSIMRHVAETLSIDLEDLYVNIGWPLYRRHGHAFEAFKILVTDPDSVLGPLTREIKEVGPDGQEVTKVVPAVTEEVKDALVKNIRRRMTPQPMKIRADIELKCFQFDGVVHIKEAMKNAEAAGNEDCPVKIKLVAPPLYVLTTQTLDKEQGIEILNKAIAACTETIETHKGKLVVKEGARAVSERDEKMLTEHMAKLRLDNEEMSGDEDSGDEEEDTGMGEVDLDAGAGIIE

Assay [1] concerns the target T1, tandem affinity purification cMyc-SPA1 (TAP-SPA1) (Arabidopsis thaliana) (UniProt Q9SYX2).
T1 sequence: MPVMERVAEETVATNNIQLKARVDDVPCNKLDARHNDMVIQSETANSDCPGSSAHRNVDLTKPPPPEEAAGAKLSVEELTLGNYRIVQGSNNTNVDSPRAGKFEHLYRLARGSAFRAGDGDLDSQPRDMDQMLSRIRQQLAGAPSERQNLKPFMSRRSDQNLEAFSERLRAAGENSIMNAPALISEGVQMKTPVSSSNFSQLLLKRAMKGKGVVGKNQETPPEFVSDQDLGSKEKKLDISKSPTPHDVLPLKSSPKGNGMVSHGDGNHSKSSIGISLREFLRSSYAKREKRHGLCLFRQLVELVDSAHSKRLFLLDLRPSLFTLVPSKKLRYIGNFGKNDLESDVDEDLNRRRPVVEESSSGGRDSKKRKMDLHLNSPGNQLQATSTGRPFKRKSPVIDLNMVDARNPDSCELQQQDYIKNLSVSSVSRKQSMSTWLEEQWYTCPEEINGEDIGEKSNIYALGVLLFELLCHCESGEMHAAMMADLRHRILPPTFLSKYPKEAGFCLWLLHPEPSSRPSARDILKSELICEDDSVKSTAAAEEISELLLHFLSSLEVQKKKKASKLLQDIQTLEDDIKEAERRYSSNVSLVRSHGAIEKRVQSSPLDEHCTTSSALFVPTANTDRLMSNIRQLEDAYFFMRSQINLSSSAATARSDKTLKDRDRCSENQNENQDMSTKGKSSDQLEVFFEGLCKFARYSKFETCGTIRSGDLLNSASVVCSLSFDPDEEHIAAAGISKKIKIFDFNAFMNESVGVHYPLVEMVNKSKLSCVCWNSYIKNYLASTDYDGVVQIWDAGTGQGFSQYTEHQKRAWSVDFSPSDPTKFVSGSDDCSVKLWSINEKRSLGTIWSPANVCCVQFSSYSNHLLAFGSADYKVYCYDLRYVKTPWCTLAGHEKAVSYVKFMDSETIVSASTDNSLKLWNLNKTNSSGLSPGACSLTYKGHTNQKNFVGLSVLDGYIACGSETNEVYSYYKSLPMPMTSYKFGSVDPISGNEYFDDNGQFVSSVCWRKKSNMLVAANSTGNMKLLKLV
Briefly: co-IP; cytosolic proteins of TAP-SPA1 seedlings (dark or 4 h white light) incubated with anti-cMyc; blots anti-cMyc and anti-eIF2α.

Assay [2] has as its target eIF2α.2-GFP (wild-type form) (Arabidopsis thaliana) (UniProt Q9SIZ2). Briefly: condition: only etiolated seedlings kept in the dark; co-IP; as a3, but four-day-old etiolated seedlings kept in the dark.
The target is the same in assay [3]. Briefly: co-IP; total extracts of eIF2α.1-GFP or eIF2α.2-GFP seedlings mixed with extract of TAP-SPA1 seedlings; GFP-Trap; blots anti-cMyc and anti-GFP; four-day-old etiolated seedlings illuminated with white light for 4 h.
The target in assay [4] is eIF2α.2-YC (Arabidopsis thaliana) (UniProt Q9SIZ2). Briefly: split reporter; BiFC; SPA1-YN and eIF2α-YC co-transfected into Arabidopsis Col-0 protoplasts; light condition.
For assay [5], the target named is eIF2α.2 full length fused to the GAL4 DNA binding domain (Arabidopsis thaliana) (UniProt Q9SIZ2). Briefly: two-hybrid; GAL4 system; eIF2α homologs on the DNA-binding domain (pGBT9, bait), SPA1 forms on the activation domain (pGAD424, prey); yeast AH109; growth on SD-Leu-Trp-His, 30 °C.
Assay [6] addresses eIF2α.2 of the pull-down assay of Supplementary Fig. 3 (Arabidopsis thaliana) (UniProt Q9SIZ2). Briefly: pull-down; pull-down of Supplementary Fig. 3; format not told in the text shown.

No constants are given. Whether binding was seen depends on the method and setting. For some of these results: Binding can be weak; no strength is given. For some of these results: Tags and fused reporters may be left off the sequences shown. For some of these results: In cells and extracts the contact can be indirect.

As to native eIF2α, the binding entry in assay [1] is “binds”.

B1: tandem affinity purification cMyc-SPA1 (TAP-SPA1) (protein, UniProt Q9SYX2 1-1029)
chain: MPVMERVAEETVATNNIQLKARVDDVPCNKLDARHNDMVIQSETANSDCPGSSAHRNVDLTKPPPPEEAAGAKLSVEELTLGNYRIVQGSNNTNVDSPRAGKFEHLYRLARGSAFRAGDGDLDSQPRDMDQMLSRIRQQLAGAPSERQNLKPFMSRRSDQNLEAFSERLRAAGENSIMNAPALISEGVQMKTPVSSSNFSQLLLKRAMKGKGVVGKNQETPPEFVSDQDLGSKEKKLDISKSPTPHDVLPLKSSPKGNGMVSHGDGNHSKSSIGISLREFLRSSYAKREKRHGLCLFRQLVELVDSAHSKRLFLLDLRPSLFTLVPSKKLRYIGNFGKNDLESDVDEDLNRRRPVVEESSSGGRDSKKRKMDLHLNSPGNQLQATSTGRPFKRKSPVIDLNMVDARNPDSCELQQQDYIKNLSVSSVSRKQSMSTWLEEQWYTCPEEINGEDIGEKSNIYALGVLLFELLCHCESGEMHAAMMADLRHRILPPTFLSKYPKEAGFCLWLLHPEPSSRPSARDILKSELICEDDSVKSTAAAEEISELLLHFLSSLEVQKKKKASKLLQDIQTLEDDIKEAERRYSSNVSLVRSHGAIEKRVQSSPLDEHCTTSSALFVPTANTDRLMSNIRQLEDAYFFMRSQINLSSSAATARSDKTLKDRDRCSENQNENQDMSTKGKSSDQLEVFFEGLCKFARYSKFETCGTIRSGDLLNSASVVCSLSFDPDEEHIAAAGISKKIKIFDFNAFMNESVGVHYPLVEMVNKSKLSCVCWNSYIKNYLASTDYDGVVQIWDAGTGQGFSQYTEHQKRAWSVDFSPSDPTKFVSGSDDCSVKLWSINEKRSLGTIWSPANVCCVQFSSYSNHLLAFGSADYKVYCYDLRYVKTPWCTLAGHEKAVSYVKFMDSETIVSASTDNSLKLWNLNKTNSSGLSPGACSLTYKGHTNQKNFVGLSVLDGYIACGSETNEVYSYYKSLPMPMTSYKFGSVDPISGNEYFDDNGQFVSSVCWRKKSNMLVAANSTGNMKLLKLV
Turning to B1, the binding entry in assay [2] is “no binding”; in assay [3] it was “binds”.

B2: SPA1-YN (protein, UniProt Q9SYX2 1-1029)
chain: MPVMERVAEETVATNNIQLKARVDDVPCNKLDARHNDMVIQSETANSDCPGSSAHRNVDLTKPPPPEEAAGAKLSVEELTLGNYRIVQGSNNTNVDSPRAGKFEHLYRLARGSAFRAGDGDLDSQPRDMDQMLSRIRQQLAGAPSERQNLKPFMSRRSDQNLEAFSERLRAAGENSIMNAPALISEGVQMKTPVSSSNFSQLLLKRAMKGKGVVGKNQETPPEFVSDQDLGSKEKKLDISKSPTPHDVLPLKSSPKGNGMVSHGDGNHSKSSIGISLREFLRSSYAKREKRHGLCLFRQLVELVDSAHSKRLFLLDLRPSLFTLVPSKKLRYIGNFGKNDLESDVDEDLNRRRPVVEESSSGGRDSKKRKMDLHLNSPGNQLQATSTGRPFKRKSPVIDLNMVDARNPDSCELQQQDYIKNLSVSSVSRKQSMSTWLEEQWYTCPEEINGEDIGEKSNIYALGVLLFELLCHCESGEMHAAMMADLRHRILPPTFLSKYPKEAGFCLWLLHPEPSSRPSARDILKSELICEDDSVKSTAAAEEISELLLHFLSSLEVQKKKKASKLLQDIQTLEDDIKEAERRYSSNVSLVRSHGAIEKRVQSSPLDEHCTTSSALFVPTANTDRLMSNIRQLEDAYFFMRSQINLSSSAATARSDKTLKDRDRCSENQNENQDMSTKGKSSDQLEVFFEGLCKFARYSKFETCGTIRSGDLLNSASVVCSLSFDPDEEHIAAAGISKKIKIFDFNAFMNESVGVHYPLVEMVNKSKLSCVCWNSYIKNYLASTDYDGVVQIWDAGTGQGFSQYTEHQKRAWSVDFSPSDPTKFVSGSDDCSVKLWSINEKRSLGTIWSPANVCCVQFSSYSNHLLAFGSADYKVYCYDLRYVKTPWCTLAGHEKAVSYVKFMDSETIVSASTDNSLKLWNLNKTNSSGLSPGACSLTYKGHTNQKNFVGLSVLDGYIACGSETNEVYSYYKSLPMPMTSYKFGSVDPISGNEYFDDNGQFVSSVCWRKKSNMLVAANSTGNMKLLKLV
In the case of B2, in assay [4], the binding entry is recorded as “binds”.

B3: SPA1 full length fused to the GAL4 activation domain (protein, UniProt Q9SYX2 1-1029)
chain: MPVMERVAEETVATNNIQLKARVDDVPCNKLDARHNDMVIQSETANSDCPGSSAHRNVDLTKPPPPEEAAGAKLSVEELTLGNYRIVQGSNNTNVDSPRAGKFEHLYRLARGSAFRAGDGDLDSQPRDMDQMLSRIRQQLAGAPSERQNLKPFMSRRSDQNLEAFSERLRAAGENSIMNAPALISEGVQMKTPVSSSNFSQLLLKRAMKGKGVVGKNQETPPEFVSDQDLGSKEKKLDISKSPTPHDVLPLKSSPKGNGMVSHGDGNHSKSSIGISLREFLRSSYAKREKRHGLCLFRQLVELVDSAHSKRLFLLDLRPSLFTLVPSKKLRYIGNFGKNDLESDVDEDLNRRRPVVEESSSGGRDSKKRKMDLHLNSPGNQLQATSTGRPFKRKSPVIDLNMVDARNPDSCELQQQDYIKNLSVSSVSRKQSMSTWLEEQWYTCPEEINGEDIGEKSNIYALGVLLFELLCHCESGEMHAAMMADLRHRILPPTFLSKYPKEAGFCLWLLHPEPSSRPSARDILKSELICEDDSVKSTAAAEEISELLLHFLSSLEVQKKKKASKLLQDIQTLEDDIKEAERRYSSNVSLVRSHGAIEKRVQSSPLDEHCTTSSALFVPTANTDRLMSNIRQLEDAYFFMRSQINLSSSAATARSDKTLKDRDRCSENQNENQDMSTKGKSSDQLEVFFEGLCKFARYSKFETCGTIRSGDLLNSASVVCSLSFDPDEEHIAAAGISKKIKIFDFNAFMNESVGVHYPLVEMVNKSKLSCVCWNSYIKNYLASTDYDGVVQIWDAGTGQGFSQYTEHQKRAWSVDFSPSDPTKFVSGSDDCSVKLWSINEKRSLGTIWSPANVCCVQFSSYSNHLLAFGSADYKVYCYDLRYVKTPWCTLAGHEKAVSYVKFMDSETIVSASTDNSLKLWNLNKTNSSGLSPGACSLTYKGHTNQKNFVGLSVLDGYIACGSETNEVYSYYKSLPMPMTSYKFGSVDPISGNEYFDDNGQFVSSVCWRKKSNMLVAANSTGNMKLLKLV
For B3, in assay [5], the binding result is recorded as “binds”.

B4: SPA1 of the pull-down assay of Supplementary Fig. 3 (protein, UniProt Q9SYX2 1-1029)
chain: MPVMERVAEETVATNNIQLKARVDDVPCNKLDARHNDMVIQSETANSDCPGSSAHRNVDLTKPPPPEEAAGAKLSVEELTLGNYRIVQGSNNTNVDSPRAGKFEHLYRLARGSAFRAGDGDLDSQPRDMDQMLSRIRQQLAGAPSERQNLKPFMSRRSDQNLEAFSERLRAAGENSIMNAPALISEGVQMKTPVSSSNFSQLLLKRAMKGKGVVGKNQETPPEFVSDQDLGSKEKKLDISKSPTPHDVLPLKSSPKGNGMVSHGDGNHSKSSIGISLREFLRSSYAKREKRHGLCLFRQLVELVDSAHSKRLFLLDLRPSLFTLVPSKKLRYIGNFGKNDLESDVDEDLNRRRPVVEESSSGGRDSKKRKMDLHLNSPGNQLQATSTGRPFKRKSPVIDLNMVDARNPDSCELQQQDYIKNLSVSSVSRKQSMSTWLEEQWYTCPEEINGEDIGEKSNIYALGVLLFELLCHCESGEMHAAMMADLRHRILPPTFLSKYPKEAGFCLWLLHPEPSSRPSARDILKSELICEDDSVKSTAAAEEISELLLHFLSSLEVQKKKKASKLLQDIQTLEDDIKEAERRYSSNVSLVRSHGAIEKRVQSSPLDEHCTTSSALFVPTANTDRLMSNIRQLEDAYFFMRSQINLSSSAATARSDKTLKDRDRCSENQNENQDMSTKGKSSDQLEVFFEGLCKFARYSKFETCGTIRSGDLLNSASVVCSLSFDPDEEHIAAAGISKKIKIFDFNAFMNESVGVHYPLVEMVNKSKLSCVCWNSYIKNYLASTDYDGVVQIWDAGTGQGFSQYTEHQKRAWSVDFSPSDPTKFVSGSDDCSVKLWSINEKRSLGTIWSPANVCCVQFSSYSNHLLAFGSADYKVYCYDLRYVKTPWCTLAGHEKAVSYVKFMDSETIVSASTDNSLKLWNLNKTNSSGLSPGACSLTYKGHTNQKNFVGLSVLDGYIACGSETNEVYSYYKSLPMPMTSYKFGSVDPISGNEYFDDNGQFVSSVCWRKKSNMLVAANSTGNMKLLKLV
For B4, in assay [6], the binding entry is “binds”.

B5: SPA1 kinase domain fused to the GAL4 activation domain (domain or fragment, UniProt Q9SYX2 188-529)
chain: VQMKTPVSSSNFSQLLLKRAMKGKGVVGKNQETPPEFVSDQDLGSKEKKLDISKSPTPHDVLPLKSSPKGNGMVSHGDGNHSKSSIGISLREFLRSSYAKREKRHGLCLFRQLVELVDSAHSKRLFLLDLRPSLFTLVPSKKLRYIGNFGKNDLESDVDEDLNRRRPVVEESSSGGRDSKKRKMDLHLNSPGNQLQATSTGRPFKRKSPVIDLNMVDARNPDSCELQQQDYIKNLSVSSVSRKQSMSTWLEEQWYTCPEEINGEDIGEKSNIYALGVLLFELLCHCESGEMHAAMMADLRHRILPPTFLSKYPKEAGFCLWLLHPEPSSRPSARDILKSELI
On to B5, for which the binding entry in assay [5] is “binds”.
